Reference: the supplement of paper PMC10849652
This is one part of the list.

By UniProt entry, the sequences of proteins in these tests, tags left out. Where a name states a change or a piece, a line headed by the entry shows the natural chain unless it says otherwise.
UniProt Q96BR5: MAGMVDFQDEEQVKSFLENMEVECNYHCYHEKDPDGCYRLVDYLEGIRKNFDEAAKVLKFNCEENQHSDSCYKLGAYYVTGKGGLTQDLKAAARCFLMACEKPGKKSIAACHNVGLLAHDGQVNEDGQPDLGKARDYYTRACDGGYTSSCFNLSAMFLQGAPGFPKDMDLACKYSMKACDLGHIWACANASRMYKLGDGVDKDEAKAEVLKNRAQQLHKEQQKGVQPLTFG
UniProt Q2KHT3: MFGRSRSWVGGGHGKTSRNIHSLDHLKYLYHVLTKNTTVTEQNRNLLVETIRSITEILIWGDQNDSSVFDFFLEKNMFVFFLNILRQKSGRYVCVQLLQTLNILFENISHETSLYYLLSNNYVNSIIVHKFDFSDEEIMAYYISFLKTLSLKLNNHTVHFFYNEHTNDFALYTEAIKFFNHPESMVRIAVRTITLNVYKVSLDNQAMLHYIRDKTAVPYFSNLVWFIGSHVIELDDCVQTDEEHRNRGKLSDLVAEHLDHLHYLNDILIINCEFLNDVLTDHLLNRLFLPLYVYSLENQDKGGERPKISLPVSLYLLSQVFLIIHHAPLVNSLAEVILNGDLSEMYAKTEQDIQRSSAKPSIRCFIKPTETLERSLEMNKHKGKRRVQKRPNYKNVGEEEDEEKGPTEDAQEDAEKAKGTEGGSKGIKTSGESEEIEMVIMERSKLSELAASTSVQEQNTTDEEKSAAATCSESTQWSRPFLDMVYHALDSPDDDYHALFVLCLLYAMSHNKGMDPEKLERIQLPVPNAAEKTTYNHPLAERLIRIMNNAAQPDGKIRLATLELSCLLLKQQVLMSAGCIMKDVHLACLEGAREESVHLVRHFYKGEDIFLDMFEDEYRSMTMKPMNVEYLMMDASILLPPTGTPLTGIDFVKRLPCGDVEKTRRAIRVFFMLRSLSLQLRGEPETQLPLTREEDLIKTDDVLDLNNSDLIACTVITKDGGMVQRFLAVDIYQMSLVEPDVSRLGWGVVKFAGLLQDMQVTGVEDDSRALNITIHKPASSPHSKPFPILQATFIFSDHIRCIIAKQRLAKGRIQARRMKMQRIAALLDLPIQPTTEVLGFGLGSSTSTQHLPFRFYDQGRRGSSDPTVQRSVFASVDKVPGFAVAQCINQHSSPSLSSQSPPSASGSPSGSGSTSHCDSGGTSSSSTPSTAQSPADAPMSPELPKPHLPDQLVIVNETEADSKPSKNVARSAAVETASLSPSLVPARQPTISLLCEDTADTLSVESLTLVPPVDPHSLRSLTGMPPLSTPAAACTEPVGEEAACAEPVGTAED
UniProt P51797: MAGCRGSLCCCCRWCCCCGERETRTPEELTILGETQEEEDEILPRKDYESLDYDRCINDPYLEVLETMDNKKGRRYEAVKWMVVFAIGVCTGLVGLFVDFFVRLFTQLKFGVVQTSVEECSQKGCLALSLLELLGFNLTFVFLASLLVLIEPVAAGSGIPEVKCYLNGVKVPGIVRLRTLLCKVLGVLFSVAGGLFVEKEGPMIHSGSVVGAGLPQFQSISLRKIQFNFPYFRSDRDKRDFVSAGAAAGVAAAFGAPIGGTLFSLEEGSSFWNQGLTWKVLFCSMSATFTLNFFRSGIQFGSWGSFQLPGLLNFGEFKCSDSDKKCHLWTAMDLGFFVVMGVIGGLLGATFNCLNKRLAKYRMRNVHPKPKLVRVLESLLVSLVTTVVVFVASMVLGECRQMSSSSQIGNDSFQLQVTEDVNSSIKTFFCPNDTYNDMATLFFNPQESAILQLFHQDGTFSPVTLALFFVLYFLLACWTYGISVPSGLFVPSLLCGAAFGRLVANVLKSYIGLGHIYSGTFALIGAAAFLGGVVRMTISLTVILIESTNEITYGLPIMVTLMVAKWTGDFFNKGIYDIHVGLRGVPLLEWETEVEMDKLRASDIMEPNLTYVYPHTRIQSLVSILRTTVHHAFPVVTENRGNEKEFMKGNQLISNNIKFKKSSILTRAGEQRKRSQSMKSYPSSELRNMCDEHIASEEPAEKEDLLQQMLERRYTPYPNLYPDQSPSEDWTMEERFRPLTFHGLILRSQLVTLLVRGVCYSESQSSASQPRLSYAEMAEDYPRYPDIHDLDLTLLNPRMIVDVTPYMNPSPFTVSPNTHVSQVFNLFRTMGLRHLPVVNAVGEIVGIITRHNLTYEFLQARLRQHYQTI
UniProt Q9Y2R0: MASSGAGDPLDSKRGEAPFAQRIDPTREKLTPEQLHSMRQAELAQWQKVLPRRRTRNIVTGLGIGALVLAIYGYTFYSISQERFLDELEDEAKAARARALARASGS
UniProt Q8N1G2: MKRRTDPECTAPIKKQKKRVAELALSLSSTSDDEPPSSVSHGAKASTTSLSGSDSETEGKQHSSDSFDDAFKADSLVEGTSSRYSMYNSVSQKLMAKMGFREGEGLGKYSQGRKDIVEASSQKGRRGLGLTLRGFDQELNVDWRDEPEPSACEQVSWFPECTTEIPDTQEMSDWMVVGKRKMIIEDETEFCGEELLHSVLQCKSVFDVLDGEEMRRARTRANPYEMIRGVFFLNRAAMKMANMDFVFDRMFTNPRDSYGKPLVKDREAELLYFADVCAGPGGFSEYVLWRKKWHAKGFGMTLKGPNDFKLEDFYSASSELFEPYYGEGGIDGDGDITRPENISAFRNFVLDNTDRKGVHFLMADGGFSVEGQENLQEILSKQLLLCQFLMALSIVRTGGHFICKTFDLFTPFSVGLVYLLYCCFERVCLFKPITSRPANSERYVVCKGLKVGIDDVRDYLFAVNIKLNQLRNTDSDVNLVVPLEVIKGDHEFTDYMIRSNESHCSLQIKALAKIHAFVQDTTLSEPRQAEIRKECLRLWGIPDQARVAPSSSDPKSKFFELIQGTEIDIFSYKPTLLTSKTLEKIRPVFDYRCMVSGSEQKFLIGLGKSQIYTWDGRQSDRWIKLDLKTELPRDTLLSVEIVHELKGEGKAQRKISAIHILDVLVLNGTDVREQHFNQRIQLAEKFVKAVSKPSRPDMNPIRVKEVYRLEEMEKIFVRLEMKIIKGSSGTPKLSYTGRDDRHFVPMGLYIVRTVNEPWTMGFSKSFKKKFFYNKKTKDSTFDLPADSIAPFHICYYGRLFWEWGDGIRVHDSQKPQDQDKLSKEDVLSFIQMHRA
UniProt Q96S66: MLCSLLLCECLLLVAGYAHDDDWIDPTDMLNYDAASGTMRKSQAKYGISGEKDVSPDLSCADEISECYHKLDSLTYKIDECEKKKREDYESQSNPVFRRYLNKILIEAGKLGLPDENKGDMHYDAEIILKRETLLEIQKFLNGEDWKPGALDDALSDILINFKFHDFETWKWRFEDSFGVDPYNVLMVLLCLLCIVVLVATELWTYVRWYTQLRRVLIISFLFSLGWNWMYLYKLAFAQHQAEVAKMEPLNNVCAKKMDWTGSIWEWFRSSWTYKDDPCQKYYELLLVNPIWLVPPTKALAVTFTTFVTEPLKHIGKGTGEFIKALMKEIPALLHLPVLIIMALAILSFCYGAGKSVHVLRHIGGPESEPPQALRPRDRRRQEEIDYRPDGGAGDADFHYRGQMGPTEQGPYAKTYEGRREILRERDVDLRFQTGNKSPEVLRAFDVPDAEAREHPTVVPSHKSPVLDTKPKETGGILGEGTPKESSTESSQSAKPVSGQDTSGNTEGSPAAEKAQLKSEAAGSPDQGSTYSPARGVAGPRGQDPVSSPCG
UniProt Q13057: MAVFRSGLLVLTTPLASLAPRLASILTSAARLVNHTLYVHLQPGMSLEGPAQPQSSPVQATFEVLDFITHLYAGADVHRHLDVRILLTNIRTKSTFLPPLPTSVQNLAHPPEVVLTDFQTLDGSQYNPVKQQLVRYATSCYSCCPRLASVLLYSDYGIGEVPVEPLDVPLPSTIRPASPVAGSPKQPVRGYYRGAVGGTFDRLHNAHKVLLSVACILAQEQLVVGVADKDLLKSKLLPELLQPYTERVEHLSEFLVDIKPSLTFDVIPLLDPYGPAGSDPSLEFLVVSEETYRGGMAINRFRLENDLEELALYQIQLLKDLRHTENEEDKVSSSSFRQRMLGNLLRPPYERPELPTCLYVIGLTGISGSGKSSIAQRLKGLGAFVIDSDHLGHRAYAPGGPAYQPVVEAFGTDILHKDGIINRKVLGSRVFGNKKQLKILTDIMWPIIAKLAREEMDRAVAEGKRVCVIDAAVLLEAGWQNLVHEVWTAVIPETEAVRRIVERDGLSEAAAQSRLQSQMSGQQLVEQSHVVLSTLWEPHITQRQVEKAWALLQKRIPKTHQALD
UniProt Q6FI81: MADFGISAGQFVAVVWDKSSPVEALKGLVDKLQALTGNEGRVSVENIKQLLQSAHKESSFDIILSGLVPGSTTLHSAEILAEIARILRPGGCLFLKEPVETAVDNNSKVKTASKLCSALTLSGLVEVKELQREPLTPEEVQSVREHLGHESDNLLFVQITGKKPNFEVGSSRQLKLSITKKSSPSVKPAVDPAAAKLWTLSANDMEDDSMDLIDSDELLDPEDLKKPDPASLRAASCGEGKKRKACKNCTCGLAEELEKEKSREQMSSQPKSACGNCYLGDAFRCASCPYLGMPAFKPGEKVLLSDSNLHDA
UniProt O76031, whole entry, looked up: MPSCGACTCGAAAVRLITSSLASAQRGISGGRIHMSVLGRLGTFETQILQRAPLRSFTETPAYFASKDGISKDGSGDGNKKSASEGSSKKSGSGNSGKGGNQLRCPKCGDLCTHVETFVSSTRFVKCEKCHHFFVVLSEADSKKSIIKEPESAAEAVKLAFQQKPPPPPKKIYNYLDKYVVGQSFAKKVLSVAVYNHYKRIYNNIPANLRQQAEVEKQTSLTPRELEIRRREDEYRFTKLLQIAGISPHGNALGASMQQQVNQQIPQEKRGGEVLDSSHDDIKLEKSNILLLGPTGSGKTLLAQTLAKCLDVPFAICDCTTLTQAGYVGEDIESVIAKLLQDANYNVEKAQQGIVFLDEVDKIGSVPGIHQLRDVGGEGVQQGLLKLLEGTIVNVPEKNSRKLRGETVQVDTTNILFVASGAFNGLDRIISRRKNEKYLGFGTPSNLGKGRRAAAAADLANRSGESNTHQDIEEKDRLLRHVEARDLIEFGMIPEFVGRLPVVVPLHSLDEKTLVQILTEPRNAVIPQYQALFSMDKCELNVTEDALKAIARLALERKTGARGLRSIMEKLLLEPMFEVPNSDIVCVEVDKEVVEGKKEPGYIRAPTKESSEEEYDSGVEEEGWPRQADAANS
UniProt Q5JTJ3: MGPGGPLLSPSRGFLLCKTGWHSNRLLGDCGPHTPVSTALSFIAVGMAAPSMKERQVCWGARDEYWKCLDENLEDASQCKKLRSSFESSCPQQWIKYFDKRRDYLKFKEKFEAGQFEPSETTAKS
UniProt P0C7P0: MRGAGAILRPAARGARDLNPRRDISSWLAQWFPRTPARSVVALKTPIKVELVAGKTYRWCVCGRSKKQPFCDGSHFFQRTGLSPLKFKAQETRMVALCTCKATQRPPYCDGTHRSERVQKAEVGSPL
UniProt P09496: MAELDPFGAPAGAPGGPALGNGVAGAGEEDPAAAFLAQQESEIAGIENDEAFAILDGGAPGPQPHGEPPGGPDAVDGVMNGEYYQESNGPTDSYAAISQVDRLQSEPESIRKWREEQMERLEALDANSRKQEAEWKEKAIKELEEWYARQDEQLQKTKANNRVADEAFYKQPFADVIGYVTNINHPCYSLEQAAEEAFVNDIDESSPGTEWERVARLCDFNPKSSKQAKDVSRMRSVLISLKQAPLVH
UniProt Q9NZ45: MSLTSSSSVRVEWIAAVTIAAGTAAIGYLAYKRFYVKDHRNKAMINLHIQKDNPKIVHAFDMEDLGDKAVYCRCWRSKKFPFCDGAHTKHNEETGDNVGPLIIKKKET
UniProt O95628: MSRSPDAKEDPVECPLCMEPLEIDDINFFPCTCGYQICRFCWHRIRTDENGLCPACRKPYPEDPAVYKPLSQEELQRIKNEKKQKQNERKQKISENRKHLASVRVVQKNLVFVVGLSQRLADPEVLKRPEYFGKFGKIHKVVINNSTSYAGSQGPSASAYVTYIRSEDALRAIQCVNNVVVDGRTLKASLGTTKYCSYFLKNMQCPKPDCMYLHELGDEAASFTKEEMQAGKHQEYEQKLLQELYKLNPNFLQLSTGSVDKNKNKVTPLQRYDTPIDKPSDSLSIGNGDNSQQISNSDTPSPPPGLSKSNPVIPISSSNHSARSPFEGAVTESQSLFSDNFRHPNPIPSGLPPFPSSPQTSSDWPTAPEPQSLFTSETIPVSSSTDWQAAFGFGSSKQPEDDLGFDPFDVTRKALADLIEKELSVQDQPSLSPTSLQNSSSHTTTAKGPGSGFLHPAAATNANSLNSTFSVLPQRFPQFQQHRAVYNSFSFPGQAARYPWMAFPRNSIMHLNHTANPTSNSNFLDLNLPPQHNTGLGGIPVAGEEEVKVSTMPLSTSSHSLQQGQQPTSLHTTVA

Key:
Test in all cases: log2 fold change, soluble protein after heating vs DMSO (PISA); higher = thermal stabilisation; K562 cells, 10 uM, 30 min; active = over 0.2 and 3.5 SD of the protein, either way, in both replicates (recomputed)
bafetinib = compound: Cc1ccc(NC(=O)c2ccc(CN3CC[C@H](N(C)C)C3)c(C(F)(F)F)c2)cc1Nc1nccc(-c2cncnc2)n1 [bafetinib]
How it was run: (§1)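 K562 cells at 2×10^6 cells/mL were treated with 10 μM compound for 30 min. Aliquots were heated for 3 min across 48°C-58°C, pooled, and extracted in PBS with 0.5% NP-40 at 4°C; soluble protein was the supernatant after 21,000xg for 90 min. Soluble protein was quantified by TMTpro 16plex LC-MS/MS with channel sums equalised, and reported as log2 fold change in thermal stability against DMSO controls, with values from duplicates.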

[1] = compound: Cc1cccc(CC(=O)N2CCc3c2ccc(-c2cn(C)c4ncnc(N)c24)c3F)n1
How it was run: as §1

nilotinib = compound: Cc1cn(-c2cc(NC(=O)c3ccc(C)c(Nc4nccc(-c5cccnc5)n4)c3)cc(C(F)(F)F)c2)cn1 [nilotinib]
How it was run: as §1

[2] = compound: Cc1nc(Nc2n[nH]c3c2CN(C(=O)N[C@H](CN(C)C)c2ccccc2)C3(C)C)c2sccc2n1
How it was run: as §1

dasatinib = compound: Cc1nc(Nc2ncc(C(=O)Nc3c(C)cccc3Cl)s2)cc(N2CCN(CCO)CC2)n1 [dasatinib]
How it was run: as §1

[3] = compound: Cc1ncc(-c2ccnc(Nc3ccc(S(C)(=O)=O)cc3)n2)n1C(C)C
How it was run: as §1

[4] = compound: Cn1cc(-c2ccc3c(c2)CCN3C(=O)Cc2cccc(C(F)(F)F)c2)c2c(N)ncnc21
How it was run: as §1

[5] = compound: Cn1cc(-c2ccc3nnc(C(F)(F)c4ccc5ncccc5c4)n3n2)cn1
How it was run: as §1

tipifarnib = compound: Cn1cncc1[C@@](N)(c1ccc(Cl)cc1)c1ccc2c(c1)c(-c1cccc(Cl)c1)cc(=O)n2C [tipifarnib]
How it was run: as §1

mubritinib = compound: FC(F)(F)c1ccc(/C=C/c2nc(COc3ccc(CCCCn4ccnn4)cc3)co2)cc1 [mubritinib]
How it was run: as §1

[6] = compound: NC(=O)Nc1cc(-c2cccc(F)c2)sc1C(=O)N[C@H]1CCCNC1
How it was run: as §1

[7] = compound: NC(=O)c1cnc(N[C@@H]2CCCC[C@@H]2N)nc1Nc1cccc(-n2nccn2)c1
How it was run: as §1

[8] = compound: NC1(c2ccc(-c3nc4ccn5c(=O)[nH]nc5c4cc3-c3ccccc3)cc2)CCC1
How it was run: as §1

[9] = compound: NCC(=O)Nc1ccc(-n2nc(C(F)(F)F)cc2-c2ccc3c(ccc4ccccc43)c2)cc1
How it was run: as §1

entinostat = compound: Nc1ccccc1NC(=O)c1ccc(CNC(=O)OCc2cccnc2)cc1 [entinostat]
How it was run: as §1

vorinostat = compound: O=C(CCCCCCC(=O)Nc1ccccc1)NO [vorinostat]
How it was run: as §1

citarinostat = compound: O=C(CCCCCCNC(=O)c1cnc(N(c2ccccc2)c2ccccc2Cl)nc1)NO [citarinostat]
How it was run: as §1

silmitasertib = compound: O=C(O)c1ccc2c(c1)nc(Nc1cccc(Cl)c1)c1ccncc12 [silmitasertib]
How it was run: as §1

[10] = compound: O=C1NC(=O)C(c2cnc3ccccn23)=C1c1cn2c3c(cc(F)cc13)CN(C(=O)N1CCCCC1)CC2
How it was run: as §1

[11] = compound: c1cc(OCCN2CCCCC2)cc(-c2n[nH]c3ccc(-c4nnc[nH]4)cc23)c1
How it was run: as §1

Measured: log2 fold change

COA7 (UniProt Q96BR5)
inactive: bafetinib -0.013 | [1] -0.001 | nilotinib -0.033 | [2] -0.001 | dasatinib 0.031 | [3] 0.006 | [4] 0.009 | [5] 0.02 | tipifarnib -0.089 | mubritinib 0.028 | [6] 0 | [7] 0.01 | [8] -0.073 | [9] 0.044 | entinostat -0.007 | vorinostat 0.011 | citarinostat 0.054 | silmitasertib -0.02 | [10] -0.007 | [11] -0.026

CLEC16A (UniProt Q2KHT3)
inactive: bafetinib 0.011 | [1] 0.004 | nilotinib -0.046 | [2] 0.039 | dasatinib 0.053 | [3] -0.037 | [4] 0.017 | [5] -0.01 | tipifarnib 0.067 | mubritinib 0.018 | [6] -0.003 | [7] 0.033 | [8] 0.006 | [9] 0.038 | entinostat -0.014 | vorinostat 0.003 | citarinostat -0.037 | silmitasertib -0.024 | [10] -0.089 | [11] 0.001

CLCN6 isoform 5 (UniProt P51797)
inactive: bafetinib -0.069 | [1] 0.113 | nilotinib 0.015 | [2] 0.129 | dasatinib 0.088 | [3] 0.123 | [4] 0.014 | [5] 0.005 | tipifarnib 0.069 | mubritinib -0.131 | [6] -0.056 | [7] 0.059 | [8] -0.23 | [9] 0.043 | entinostat -0.133 | vorinostat 0.033 | citarinostat 0.057 | silmitasertib 0.018 | [10] -0.155 | [11] -0.067

CNST (UniProt Q6PJW8)
inactive: bafetinib -0.05 | [1] -0.054 | nilotinib -0.008 | [2] -0.045 | dasatinib -0.045 | [3] -0.005 | [4] 0.041 | [5] 0.008 | tipifarnib 0.044 | mubritinib 0.062 | [6] 0.025 | [7] -0.027 | [8] -0.111 | [9] -0.031 | entinostat -0.023 | vorinostat 0.044 | citarinostat 0.065 | silmitasertib 0.011 | [10] -0.015 | [11] 0.039

COA3 (UniProt Q9Y2R0)
inactive: bafetinib -0.084 | [1] -0.046 | nilotinib 0.025 | [2] -0.077 | dasatinib 0.087 | [3] -0.01 | [4] 0.013 | [5] 0.05 | tipifarnib 0.046 | mubritinib 0.045 | [6] -0.04 | [7] 0.029 | [8] 0.018 | [9] 0 | entinostat 0.013 | vorinostat -0.021 | citarinostat -0.027 | silmitasertib 0.015 | [10] -0.019 | [11] -0.067

CMTR1 (UniProt Q8N1G2)
inactive: bafetinib -0.054 | [1] 0 | nilotinib -0.059 | [2] -0.01 | dasatinib -0.059 | [3] 0.035 | [4] -0.033 | [5] 0.044 | tipifarnib -0.03 | mubritinib 0.029 | [6] -0.022 | [7] -0.015 | [8] -0.135 | [9] -0.01 | entinostat -0.025 | vorinostat 0.026 | citarinostat 0.002 | silmitasertib 0.004 | [10] -0.083 | [11] -0.009

CLCC1 (UniProt Q96S66)
inactive: bafetinib -0.034 | [1] -0.039 | nilotinib 0.023 | [2] 0.014 | dasatinib 0.025 | [3] -0.022 | [4] 0.057 | [5] 0.021 | tipifarnib 0.006 | mubritinib 0.002 | [6] -0.025 | [7] -0.065 | [8] -0.006 | [9] -0.026 | entinostat -0.008 | vorinostat -0.025 | citarinostat 0.016 | silmitasertib 0.031 | [10] 0.012 | [11] 0.004

COASY isoform 2 (UniProt Q13057)
inactive: bafetinib -0.009 | [1] 0.089 | nilotinib -0.19 | [2] 0.001 | dasatinib -0.132 | [3] 0.005 | [4] 0.037 | [5] -0.062 | tipifarnib -0.102 | mubritinib -0.196 | [6] 0 | [7] 0.004 | [8] -0.138 | [9] -0.004 | entinostat 0.018 | vorinostat 0.063 | citarinostat 0.054 | silmitasertib 0.042 | [10] -0.004 | [11] -0.01

CIAPIN1 (UniProt Q6FI81)
inactive: bafetinib -0.032 | [1] 0.015 | nilotinib -0.016 | [2] -0.013 | dasatinib -0.03 | [3] 0.004 | [4] 0.013 | [5] -0.017 | tipifarnib -0.02 | mubritinib 0.046 | [6] -0.055 | [7] -0.042 | [8] -0.113 | [9] -0.048 | entinostat 0.022 | vorinostat 0.021 | citarinostat 0.043 | silmitasertib 0.029 | [10] -0.038 | [11] 0.004

CLPX (UniProt O76031)
inactive: bafetinib 0.008 | [1] -0.074 | nilotinib -0.006 | [2] 0.042 | dasatinib 0.006 | [3] -0.019 | [4] -0.012 | [5] 0.032 | tipifarnib 0.052 | mubritinib -0.048 | [6] 0.01 | [7] 0.011 | [8] -0.031 | [9] -0.01 | entinostat -0.019 | vorinostat 0.007 | citarinostat 0.011 | silmitasertib 0.022 | [10] 0.058 | [11] -0.05

COA6 isoform 2 (UniProt Q5JTJ3)
inactive: bafetinib -0.093 | [1] 0.002 | nilotinib -0.064 | [2] 0.02 | dasatinib -0.017 | [3] 0.012 | [4] -0.097 | [5] 0.035 | tipifarnib -0.008 | mubritinib 0.041 | [6] 0.034 | [7] 0.106 | [8] -0.009 | [9] -0.018 | entinostat -0.003 | vorinostat -0.024 | citarinostat 0.053 | silmitasertib 0.01 | [10] 0.011 | [11] -0.041

CISD3 (UniProt P0C7P0)
inactive: bafetinib -0.102 | [1] -0.002 | nilotinib -0.089 | [2] 0.042 | dasatinib -0.112 | [3] 0.058 | [4] 0.021 | [5] -0.07 | tipifarnib 0.024 | mubritinib -0.012 | [6] -0.07 | [7] 0.046 | [8] -0.146 | [9] -0.102 | entinostat 0.046 | vorinostat -0.082 | citarinostat 0.028 | silmitasertib 0.009 | [10] 0.027 | [11] -0.036

CNNM4 (UniProt Q6P4Q7)
inactive: bafetinib 0 | [1] -0.025 | nilotinib 0.045 | [2] -0.026 | dasatinib -0.15 | [3] 0.06 | [4] -0.08 | [5] -0.078 | tipifarnib -0.063 | mubritinib -0.06 | [6] -0.013 | [7] 0.091 | [8] -0.111 | [9] 0.08 | entinostat 0.029 | vorinostat 0.053 | citarinostat -0.068 | silmitasertib 0.084 | [10] -0.046 | [11] 0.197

Fetched one by one from the list above (2):
CLPX (UniProt O76031)
inactive: bafetinib 0.008 | [1] -0.074 | nilotinib -0.006 | [2] 0.042 | dasatinib 0.006 | [3] -0.019 | [4] -0.012 | [5] 0.032 | tipifarnib 0.052 | mubritinib -0.048 | [6] 0.01 | [7] 0.011 | [8] -0.031 | [9] -0.01 | entinostat -0.019 | vorinostat 0.007 | citarinostat 0.011 | silmitasertib 0.022 | [10] 0.058 | [11] -0.05

COA6 isoform 2 (UniProt Q5JTJ3)
inactive: bafetinib -0.093 | [1] 0.002 | nilotinib -0.064 | [2] 0.02 | dasatinib -0.017 | [3] 0.012 | [4] -0.097 | [5] 0.035 | tipifarnib -0.008 | mubritinib 0.041 | [6] 0.034 | [7] 0.106 | [8] -0.009 | [9] -0.018 | entinostat -0.003 | vorinostat -0.024 | citarinostat 0.053 | silmitasertib 0.01 | [10] 0.011 | [11] -0.041

Going on with the list.

CLTA isoform 2 (UniProt P09496)
inactive: bafetinib 0.041 | [1] -0.016 | nilotinib 0.085 | [2] 0.048 | dasatinib 0.061 | [3] -0.025 | [4] -0.056 | [5] -0.023 | tipifarnib -0.003 | mubritinib -0.01 | [6] 0.074 | [7] 0.05 | [8] 0.017 | [9] 0.095 | entinostat -0.073 | vorinostat -0.052 | citarinostat -0.092 | silmitasertib 0.017 | [10] 0.012 | [11] -0.072

CISD1 (UniProt Q9NZ45)
inactive: bafetinib -0.084 | [1] -0.042 | nilotinib 0.052 | [2] 0.007 | dasatinib 0.025 | [3] 0.006 | [4] -0.002 | [5] 0.027 | tipifarnib 0.03 | mubritinib 0.001 | [6] 0.023 | [7] 0.003 | [8] 0.015 | [9] 0.048 | entinostat -0.021 | vorinostat -0.082 | citarinostat 0.007 | silmitasertib -0.005 | [10] -0.035 | [11] 0.013

CNOT4 isoform 6 (UniProt O95628)
inactive: bafetinib -0.088 | [1] -0.036 | nilotinib -0.024 | [2] -0.042 | dasatinib -0.034 | [3] -0.003 | [4] 0.021 | [5] 0.033 | tipifarnib 0.027 | mubritinib 0.023 | [6] 0.033 | [7] -0.046 | [8] -0.074 | [9] -0.026 | entinostat -0.009 | vorinostat 0.052 | citarinostat 0.038 | silmitasertib 0.023 | [10] -0.043 | [11] -0.037
